The supplement of paper PMC10849652
The other results are listed elsewhere or left out.

Sequences of proteins named here, by UniProt entry; tags and fusion partners are left off. A change or cut given only in a name is not applied to a line headed by its entry.
UniProt Q9Y5Y0: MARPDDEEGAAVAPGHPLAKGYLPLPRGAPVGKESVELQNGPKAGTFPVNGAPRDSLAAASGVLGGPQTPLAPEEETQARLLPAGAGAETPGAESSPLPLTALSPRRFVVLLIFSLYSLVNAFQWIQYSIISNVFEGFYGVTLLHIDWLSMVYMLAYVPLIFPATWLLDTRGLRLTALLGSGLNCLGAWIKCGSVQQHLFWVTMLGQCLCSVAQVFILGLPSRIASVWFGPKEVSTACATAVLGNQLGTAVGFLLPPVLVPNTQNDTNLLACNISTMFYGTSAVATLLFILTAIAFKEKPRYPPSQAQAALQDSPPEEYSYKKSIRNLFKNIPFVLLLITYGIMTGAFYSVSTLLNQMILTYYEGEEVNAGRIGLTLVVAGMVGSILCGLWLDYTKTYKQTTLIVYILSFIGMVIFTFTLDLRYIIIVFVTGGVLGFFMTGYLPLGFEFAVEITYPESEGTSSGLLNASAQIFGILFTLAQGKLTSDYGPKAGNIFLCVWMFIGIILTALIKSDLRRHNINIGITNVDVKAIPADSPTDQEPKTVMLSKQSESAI
UniProt Q8NFG4: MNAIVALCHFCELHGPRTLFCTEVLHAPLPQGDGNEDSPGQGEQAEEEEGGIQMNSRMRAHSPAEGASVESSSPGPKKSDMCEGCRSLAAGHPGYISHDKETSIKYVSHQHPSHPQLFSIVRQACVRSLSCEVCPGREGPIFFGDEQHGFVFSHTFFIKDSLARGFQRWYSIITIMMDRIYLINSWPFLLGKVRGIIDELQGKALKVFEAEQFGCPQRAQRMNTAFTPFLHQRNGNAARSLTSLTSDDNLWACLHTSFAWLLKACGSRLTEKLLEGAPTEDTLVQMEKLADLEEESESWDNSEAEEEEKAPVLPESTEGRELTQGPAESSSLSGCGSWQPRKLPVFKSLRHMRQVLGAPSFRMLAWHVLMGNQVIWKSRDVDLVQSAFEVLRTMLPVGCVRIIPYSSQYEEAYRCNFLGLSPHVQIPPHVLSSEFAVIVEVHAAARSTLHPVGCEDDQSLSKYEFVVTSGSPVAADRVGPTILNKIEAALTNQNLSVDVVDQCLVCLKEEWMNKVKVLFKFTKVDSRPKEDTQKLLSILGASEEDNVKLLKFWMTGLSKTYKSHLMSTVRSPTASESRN
UniProt Q9Y3I1: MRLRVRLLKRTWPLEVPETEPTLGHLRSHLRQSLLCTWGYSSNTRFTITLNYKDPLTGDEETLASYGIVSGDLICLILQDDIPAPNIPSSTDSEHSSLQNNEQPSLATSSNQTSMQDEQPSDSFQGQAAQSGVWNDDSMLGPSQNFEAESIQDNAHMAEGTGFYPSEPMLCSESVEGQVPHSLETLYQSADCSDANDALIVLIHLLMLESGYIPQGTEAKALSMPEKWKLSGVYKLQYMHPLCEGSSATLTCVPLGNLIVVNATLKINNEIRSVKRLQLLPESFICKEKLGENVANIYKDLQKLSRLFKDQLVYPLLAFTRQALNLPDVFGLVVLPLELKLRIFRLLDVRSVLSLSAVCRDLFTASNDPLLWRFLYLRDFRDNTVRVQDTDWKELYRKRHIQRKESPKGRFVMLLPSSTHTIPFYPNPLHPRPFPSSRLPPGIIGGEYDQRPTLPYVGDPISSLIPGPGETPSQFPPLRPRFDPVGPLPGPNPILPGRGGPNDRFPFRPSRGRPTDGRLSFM
UniProt Q9Y613: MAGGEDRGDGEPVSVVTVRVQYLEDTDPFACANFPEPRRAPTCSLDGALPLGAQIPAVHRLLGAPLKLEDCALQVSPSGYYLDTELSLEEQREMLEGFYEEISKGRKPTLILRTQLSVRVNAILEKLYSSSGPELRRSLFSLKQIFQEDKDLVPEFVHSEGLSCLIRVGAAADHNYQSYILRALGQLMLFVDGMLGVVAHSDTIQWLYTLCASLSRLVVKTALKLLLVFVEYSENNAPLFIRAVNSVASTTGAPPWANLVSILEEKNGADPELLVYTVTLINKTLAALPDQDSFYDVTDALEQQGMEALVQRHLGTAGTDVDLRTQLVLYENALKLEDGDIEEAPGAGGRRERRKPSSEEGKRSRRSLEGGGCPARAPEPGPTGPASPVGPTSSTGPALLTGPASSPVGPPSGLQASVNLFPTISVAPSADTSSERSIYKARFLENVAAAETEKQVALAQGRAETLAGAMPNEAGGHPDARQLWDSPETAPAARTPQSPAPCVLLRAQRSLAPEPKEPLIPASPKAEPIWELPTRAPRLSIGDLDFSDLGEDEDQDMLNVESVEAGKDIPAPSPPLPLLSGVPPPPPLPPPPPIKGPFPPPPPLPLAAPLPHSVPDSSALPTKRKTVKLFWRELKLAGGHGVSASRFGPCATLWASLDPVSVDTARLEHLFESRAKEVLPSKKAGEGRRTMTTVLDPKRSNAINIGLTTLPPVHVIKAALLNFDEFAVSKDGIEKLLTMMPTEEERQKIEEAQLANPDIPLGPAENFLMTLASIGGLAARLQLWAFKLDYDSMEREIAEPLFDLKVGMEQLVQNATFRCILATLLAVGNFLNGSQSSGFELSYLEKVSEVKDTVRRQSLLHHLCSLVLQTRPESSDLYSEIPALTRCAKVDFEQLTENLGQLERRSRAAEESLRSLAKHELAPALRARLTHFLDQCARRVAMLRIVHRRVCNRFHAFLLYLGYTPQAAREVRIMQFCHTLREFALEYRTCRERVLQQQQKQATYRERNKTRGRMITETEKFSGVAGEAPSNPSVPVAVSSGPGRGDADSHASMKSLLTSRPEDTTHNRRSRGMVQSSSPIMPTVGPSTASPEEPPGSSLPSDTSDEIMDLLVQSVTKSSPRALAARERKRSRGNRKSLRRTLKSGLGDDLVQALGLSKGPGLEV
UniProt Q86UX7, whole entry, looked up: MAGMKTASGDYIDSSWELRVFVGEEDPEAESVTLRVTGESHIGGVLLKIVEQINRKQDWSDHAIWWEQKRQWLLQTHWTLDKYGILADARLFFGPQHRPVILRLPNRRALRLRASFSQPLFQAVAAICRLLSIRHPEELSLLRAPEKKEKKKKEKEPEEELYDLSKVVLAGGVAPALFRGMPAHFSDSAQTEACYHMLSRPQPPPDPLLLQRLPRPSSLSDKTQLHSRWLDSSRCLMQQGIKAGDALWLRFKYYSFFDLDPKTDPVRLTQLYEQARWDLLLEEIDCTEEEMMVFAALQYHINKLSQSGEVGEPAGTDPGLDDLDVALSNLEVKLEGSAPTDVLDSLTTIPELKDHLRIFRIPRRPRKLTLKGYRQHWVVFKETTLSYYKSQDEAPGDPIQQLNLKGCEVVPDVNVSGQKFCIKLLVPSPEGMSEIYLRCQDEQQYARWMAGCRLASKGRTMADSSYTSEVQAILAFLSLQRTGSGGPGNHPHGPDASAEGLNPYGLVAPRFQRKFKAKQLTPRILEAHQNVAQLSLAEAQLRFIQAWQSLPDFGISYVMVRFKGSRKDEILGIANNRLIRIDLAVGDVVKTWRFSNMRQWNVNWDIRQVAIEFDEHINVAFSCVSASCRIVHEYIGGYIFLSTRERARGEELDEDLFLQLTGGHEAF
UniProt Q92562: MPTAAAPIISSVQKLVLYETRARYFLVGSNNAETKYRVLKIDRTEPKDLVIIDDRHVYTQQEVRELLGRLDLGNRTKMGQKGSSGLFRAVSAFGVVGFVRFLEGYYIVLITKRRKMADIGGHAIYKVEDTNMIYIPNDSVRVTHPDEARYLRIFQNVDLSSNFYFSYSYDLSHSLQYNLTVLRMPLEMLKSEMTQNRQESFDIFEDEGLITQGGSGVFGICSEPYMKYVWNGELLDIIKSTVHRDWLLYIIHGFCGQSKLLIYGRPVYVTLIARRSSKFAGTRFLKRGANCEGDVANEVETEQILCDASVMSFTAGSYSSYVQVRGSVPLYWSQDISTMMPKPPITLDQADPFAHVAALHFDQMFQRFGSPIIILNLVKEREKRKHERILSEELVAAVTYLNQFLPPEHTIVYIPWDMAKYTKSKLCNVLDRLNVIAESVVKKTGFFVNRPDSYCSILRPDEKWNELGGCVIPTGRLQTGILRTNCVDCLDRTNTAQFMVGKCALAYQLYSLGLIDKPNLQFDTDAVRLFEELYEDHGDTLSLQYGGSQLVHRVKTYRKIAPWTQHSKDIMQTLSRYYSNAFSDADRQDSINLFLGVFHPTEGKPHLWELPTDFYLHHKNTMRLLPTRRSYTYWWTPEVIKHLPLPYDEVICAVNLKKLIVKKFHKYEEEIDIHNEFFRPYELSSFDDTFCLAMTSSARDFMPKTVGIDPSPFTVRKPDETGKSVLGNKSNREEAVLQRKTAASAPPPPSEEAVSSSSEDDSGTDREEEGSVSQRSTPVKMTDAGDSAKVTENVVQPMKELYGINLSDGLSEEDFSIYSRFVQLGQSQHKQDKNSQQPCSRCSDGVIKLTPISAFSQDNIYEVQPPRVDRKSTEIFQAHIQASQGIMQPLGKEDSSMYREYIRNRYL
UniProt Q8TB52: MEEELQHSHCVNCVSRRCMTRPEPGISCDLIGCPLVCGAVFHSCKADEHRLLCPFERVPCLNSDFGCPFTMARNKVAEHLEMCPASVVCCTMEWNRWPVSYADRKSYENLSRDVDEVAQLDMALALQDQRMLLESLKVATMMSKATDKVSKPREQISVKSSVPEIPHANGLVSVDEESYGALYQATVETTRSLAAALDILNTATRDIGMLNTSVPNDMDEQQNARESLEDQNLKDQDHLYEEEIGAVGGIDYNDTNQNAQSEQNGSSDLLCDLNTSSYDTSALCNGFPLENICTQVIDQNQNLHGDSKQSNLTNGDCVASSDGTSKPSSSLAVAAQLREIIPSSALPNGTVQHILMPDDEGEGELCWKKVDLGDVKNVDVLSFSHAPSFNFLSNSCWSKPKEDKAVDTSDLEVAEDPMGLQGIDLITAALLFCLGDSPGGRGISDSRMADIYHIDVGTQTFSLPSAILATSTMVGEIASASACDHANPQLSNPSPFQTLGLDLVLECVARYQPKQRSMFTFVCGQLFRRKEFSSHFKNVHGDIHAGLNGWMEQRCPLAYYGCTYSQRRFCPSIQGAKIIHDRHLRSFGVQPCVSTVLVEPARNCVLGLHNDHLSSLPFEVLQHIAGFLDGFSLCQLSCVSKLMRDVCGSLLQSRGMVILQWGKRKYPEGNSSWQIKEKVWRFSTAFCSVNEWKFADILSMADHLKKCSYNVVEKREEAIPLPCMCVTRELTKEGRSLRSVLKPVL
UniProt Q96CP2: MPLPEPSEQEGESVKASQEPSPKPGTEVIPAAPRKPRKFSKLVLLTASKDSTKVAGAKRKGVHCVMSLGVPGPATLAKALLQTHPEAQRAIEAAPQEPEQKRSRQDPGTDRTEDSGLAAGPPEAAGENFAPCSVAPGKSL
UniProt O95466, whole entry, looked up: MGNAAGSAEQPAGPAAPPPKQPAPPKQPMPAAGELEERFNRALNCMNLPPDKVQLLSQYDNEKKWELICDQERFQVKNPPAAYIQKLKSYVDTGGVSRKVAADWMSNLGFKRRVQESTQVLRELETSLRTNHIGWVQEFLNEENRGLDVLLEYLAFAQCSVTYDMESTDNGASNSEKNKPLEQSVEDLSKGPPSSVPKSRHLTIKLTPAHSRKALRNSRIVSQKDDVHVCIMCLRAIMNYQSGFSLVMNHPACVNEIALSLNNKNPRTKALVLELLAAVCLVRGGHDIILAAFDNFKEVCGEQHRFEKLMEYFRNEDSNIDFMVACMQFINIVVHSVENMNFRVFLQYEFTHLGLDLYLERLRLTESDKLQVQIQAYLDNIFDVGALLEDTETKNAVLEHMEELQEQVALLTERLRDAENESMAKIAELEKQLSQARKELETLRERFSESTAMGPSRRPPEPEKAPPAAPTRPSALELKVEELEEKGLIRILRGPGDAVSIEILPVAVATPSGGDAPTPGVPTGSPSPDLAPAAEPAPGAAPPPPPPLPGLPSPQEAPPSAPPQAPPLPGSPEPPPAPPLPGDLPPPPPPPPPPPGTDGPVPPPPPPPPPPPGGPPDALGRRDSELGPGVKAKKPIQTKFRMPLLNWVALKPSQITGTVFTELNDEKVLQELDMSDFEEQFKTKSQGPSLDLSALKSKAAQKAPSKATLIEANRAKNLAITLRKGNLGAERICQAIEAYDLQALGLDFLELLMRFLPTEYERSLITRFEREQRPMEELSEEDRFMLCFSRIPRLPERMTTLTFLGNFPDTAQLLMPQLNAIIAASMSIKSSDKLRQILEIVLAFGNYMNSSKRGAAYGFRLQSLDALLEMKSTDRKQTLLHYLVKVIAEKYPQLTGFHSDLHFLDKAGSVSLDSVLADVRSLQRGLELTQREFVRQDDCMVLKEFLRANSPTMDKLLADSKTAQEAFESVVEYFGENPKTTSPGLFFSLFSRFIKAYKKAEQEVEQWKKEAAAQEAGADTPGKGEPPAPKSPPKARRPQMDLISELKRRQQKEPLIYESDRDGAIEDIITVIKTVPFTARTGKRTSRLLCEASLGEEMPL

Experiments:
Experiment in all cases: log2 fold change, soluble protein after heating vs DMSO (PISA); higher = thermal stabilisation; K562 lysate, 10 uM; active = over 0.2 and 3.5 SD of the protein, either way, in both replicates (recomputed)
[1] = compound: CN1CC[C@H](c2c(O)cc(O)c3c(=O)cc(-c4ccccc4Cl)oc23)[C@H](O)C1 [alvocidib]
Method in brief: (§1)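 To prepare the extract, K562 pellets were dounce-homogenised in PBS pH 7.4 with 1 mM MgCl2, giving crude material at 1 mg/mL protein. This was treated with 10 μM compound for 30 min, then heated in aliquots for 3 min over 48°C-58°C before pooling and addition of NP-40 to 0.5% at 4°C. Centrifugation at 21,000xg for 90 min left soluble protein in the supernatant, which TMTpro 16plex LC-MS/MS quantified with equalised channel sums. Results are log-two fold changes in thermal stability compared with solvent controls, from duplicates.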

[2] = compound: CN1CCc2c(c3ccccc3n2Cc2ccc(C(=O)NO)cc2)C1 [Tubastatin A]
Method in brief: as §1

[3] = compound: CNC(=O)C1=CC=CC=C1NC2=NC(=NC=C2Cl)NC3=C(C=C(C=C3)N4CCOCC4)OC
Method in brief: as §1

[4] = compound: CNC(=O)c1ccc(Nc2ncc(C(F)(F)F)c(NCc3nccnc3N(C)S(C)(=O)=O)n2)cc1 [defactinib]
Method in brief: as §1

[5] = compound: CNc1nc(-c2ccc3c(N)n[nH]c3c2)cc(N2C[C@@H](C(=O)NC3CCCCC3)CC[C@H]2C)n1
Method in brief: as §1

[6] = compound: COC(=O)N[C@@H](C)CNc1nccc(-c2cn(C(C)C)nc2-c2cc(Cl)cc(NS(C)(=O)=O)c2F)n1 [encorafenib]
Method in brief: as §1

[7] = compound: COC(=O)[C@H](CCSC)NC(=O)C1=C(C=C(C=C1)NC[C@H](CS)N)C2=CC=CC=C2
Method in brief: as §1

[8] = compound: COc1cc(Nc2ncc3c(n2)-c2ccc(Cl)cc2C(c2c(F)cccc2OC)=NC3)ccc1C(=O)O [alisertib]
Method in brief: as §1

[9] = compound: COc1cc2nc(-c3cc(F)ccc3O)nc(N[C@@H]3CNC[C@H]3C(C)(C)O)c2cc1OC
Method in brief: as §1

[10] = compound: COc1cc2ncnc(Nc3ccc(F)c(Cl)c3)c2cc1OCCCN1CCOCC1 [gefitinib]
Method in brief: as §1

Measured: log2 fold change

FGFR1OP2 isoform 2 (UniProt Q9NVK5)
inactive: [1] 0.067

FLVCR1 (UniProt Q9Y5Y0)
inactive: [1] 0.012 | [2] 0.087 | [3] -0.094 | [4] 0 | [5] -0.02 | [6] 0.017 | [7] 0.006 | [8] -0.008 | [9] -0.027 | [10] 0.066

FDPS (UniProt P14324)
inactive: [1] 0.029 | [2] -0.098 | [3] 0.012 | [4] -0.013 | [5] 0.02 | [6] -0.001 | [7] 0.123 | [8] 0.008 | [9] -0.001 | [10] -0.033

FLCN (UniProt Q8NFG4)
inactive: [1] -0.026 | [2] -0.012 | [3] -0.004 | [4] -0.001 | [5] 0.031 | [6] 0.008 | [7] 0.123 | [8] 0.083 | [9] 0.049 | [10] 0.039

FBXO7 (UniProt Q9Y3I1)
inactive: [1] -0.075 | [2] -0.003 | [3] 0.005 | [4] -0.011 | [5] 0.019 | [6] 0.024 | [7] -0.005 | [8] -0.057 | [9] 0.008 | [10] -0.017

FH (UniProt P07954)
inactive: [1] 0.036 | [2] 0.03 | [3] -0.011 | [4] 0.026 | [5] -0.016 | [6] -0.033 | [7] 0.048 | [8] 0.008 | [9] -0.005 | [10] -0.008

FHOD1 (UniProt Q9Y613)
inactive: [1] -0.034 | [2] -0.129 | [3] 0.014 | [4] 0.033 | [5] 0.006 | [6] 0.021 | [7] 0.028 | [8] 0.011 | [9] 0.002 | [10] -0.013

FKBP5 (UniProt Q13451)
inactive: [1] -0.005 | [2] -0.045 | [3] 0.006 | [4] -0.004 | [5] -0.003 | [6] -0.008 | [7] 0.146 | [8] 0.003 | [9] -0.002 | [10] 0.001

FLNB isoform 8 (UniProt O75369)
inactive: [1] -0.013 | [2] 0.027 | [3] -0.009 | [4] 0.006 | [5] -0.001 | [6] -0.006 | [7] -0.026 | [8] 0.01 | [9] 0.005 | [10] -0.011

FCHO2 (UniProt Q0JRZ9)
inactive: [1] -0.002 | [2] -0.013 | [3] 0.025 | [4] 0.03 | [5] -0.008 | [6] -0.045 | [7] 0.03 | [8] 0.004 | [9] -0.03 | [10] -0.046

FBXO3 (UniProt Q9UK99)
inactive: [1] 0.016 | [2] -0.016 | [3] 0.033 | [4] 0 | [5] -0.076 | [6] 0.033 | [7] -0.019 | [8] -0.018 | [9] 0.002 | [10] 0.025

FHL1 isoform 4 (UniProt Q13642)
inactive: [1] -0.014

FAU (UniProt E9PR30)
inactive: [1] 0.073 | [2] 0.02 | [3] -0.087 | [4] 0.003 | [5] 0.013 | [6] -0.04 | [7] 0.013 | [8] 0.035 | [9] -0.016 | [10] -0.044

FBXL18 isoform 4 (UniProt Q96ME1)
inactive: [1] 0.007 | [2] 0.02 | [3] 0.02 | [4] 0.008 | [5] -0.024 | [6] -0.005 | [7] -0.049 | [8] -0.001 | [9] 0 | [10] 0.024

FERMT3 (UniProt Q86UX7)
inactive: [1] -0.028 | [2] 0.009 | [3] 0.014 | [4] -0.02 | [5] 0.02 | [6] -0.007 | [7] -0.023 | [8] 0.022 | [9] 0.009 | [10] 0.019

FNTA (UniProt P49354)
inactive: [1] 0 | [2] 0.05 | [3] -0.06 | [4] -0.01 | [5] -0.025 | [6] 0 | [7] 0.136 | [8] -0.006 | [9] -0.002 | [10] 0.002

FIG4 (UniProt Q92562)
inactive: [1] -0.106 | [2] 0.012 | [3] -0.004 | [4] -0.039 | [5] -0.016 | [6] 0.064 | [7] 0.037 | [8] -0.145 | [9] 0.079 | [10] 0.148

FAR1 (UniProt Q8WVX9)
inactive: [1] 0 | [2] -0.043 | [3] 0.034 | [4] 0.028 | [5] -0.039 | [6] 0.002 | [7] -0.009 | [8] -0.004 | [9] -0.007 | [10] -0.034

Taken from the listing (2 entries):
FIG4 (UniProt Q92562)
inactive: [1] -0.106 | [2] 0.012 | [3] -0.004 | [4] -0.039 | [5] -0.016 | [6] 0.064 | [7] 0.037 | [8] -0.145 | [9] 0.079 | [10] 0.148

FAR1 (UniProt Q8WVX9)
inactive: [1] 0 | [2] -0.043 | [3] 0.034 | [4] 0.028 | [5] -0.039 | [6] 0.002 | [7] -0.009 | [8] -0.004 | [9] -0.007 | [10] -0.034

Further results:

FEZ2 isoform 2 (UniProt Q9UHY8)
inactive: [1] -0.003 | [2] -0.052 | [3] -0.041 | [4] 0.037 | [5] 0.011 | [6] 0.028 | [7] -0.017 | [8] -0.06 | [9] -0.015 | [10] 0.02

FBXO30 (UniProt Q8TB52)
inactive: [1] 0.066 | [2] -0.106 | [3] 0.03 | [4] 0.042 | [5] -0.091 | [6] 0.036 | [7] 0.1 | [8] -0.014 | [9] -0.006 | [10] 0.029

FLNC (UniProt Q14315)
inactive: [1] -0.031 | [2] 0.027 | [3] 0.001 | [4] -0.016 | [5] 0.02 | [6] -0.007 | [7] -0.036 | [8] 0.002 | [9] 0.005 | [10] -0.012

FASN (UniProt P49327)
inactive: [1] 0.011 | [2] -0.026 | [3] 0.015 | [4] 0.009 | [5] 0.013 | [6] -0.001 | [7] 0.022 | [8] 0.004 | [9] 0.001 | [10] -0.019

FGGY isoform 3 (UniProt Q96C11)
inactive: [1] 0.092 | [2] 0.058 | [3] 0.039 | [4] 0.014 | [5] 0.147 | [6] 0.068 | [7] 0.033 | [8] 0.091 | [9] -0.011 | [10] -0.042

FCHSD1 (UniProt Q86WN1)
inactive: [1] -0.097 | [2] -0.083 | [3] -0.044 | [4] -0.029 | [5] -0.038 | [6] 0.009 | [7] 0.004 | [8] -0.054 | [9] -0.041 | [10] -0.05

FGFR1OP (UniProt O95684)
inactive: [1] 0.008 | [2] 0.018 | [3] -0.003 | [4] -0.011 | [5] 0.026 | [6] 0.053 | [7] -0.048 | [8] -0.012 | [9] 0.016 | [10] -0.036

FLYWCH2 (UniProt Q96CP2)
inactive: [1] -0.021 | [2] 0.012 | [3] 0.005 | [4] 0.016 | [5] 0.042 | [6] 0.007 | [7] -0.088 | [8] 0.004 | [9] -0.031 | [10] 0.02

FN3K (UniProt Q9H479)
inactive: [1] 0.036 | [2] 0.015 | [3] -0.005 | [4] -0.009 | [5] 0.022 | [6] -0.006 | [7] -0.035 | [8] -0.02 | [9] 0.002 | [10] 0.007

FANCF (UniProt Q9NPI8)
inactive: [1] -0.007

FMNL1 isoform 3 (UniProt O95466)
inactive: [1] 0.011 | [2] -0.053 | [3] 0.015 | [4] 0.021 | [5] 0.015 | [6] 0.093 | [7] 0.018 | [8] 0.029 | [9] 0.044 | [10] -0.061

FMR1 (UniProt Q06787)
inactive: [1] 0 | [2] -0.01 | [3] 0.005 | [4] 0.046 | [5] 0.002 | [6] -0.017 | [7] 0.051 | [8] -0.056 | [9] 0.02 | [10] -0.026

FEZ2 (UniProt Q9UHY8)
inactive: [1] -0.007

FBL (UniProt P22087)
inactive: [1] -0.017 | [2] 0.002 | [3] -0.022 | [4] -0.075 | [5] 0.022 | [6] 0.045 | [7] 0.055 | [8] 0.02 | [9] 0.007 | [10] -0.008

FBXO4 (UniProt Q9UKT5)
inactive: [1] -0.005 | [2] -0.113 | [3] 0.052 | [4] 0.006 | [5] -0.012 | [6] 0.005 | [7] 0.02 | [8] -0.04 | [9] 0.015 | [10] 0.027
